Measurements reported in PubChem BioAssay AID686943 (Drosophila RNAi Screening Center, 2013).
Purpose: 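Search across the genome for regulators of signalling from receptor tyrosine kinase to ERK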 (primary screen). Cells: Drosophila S2R+ haemocyte-like cells expressing YFP-tagged ERK (Rolled). Knock-down reagent: long dsRNA against Drosophila genes. Challenge: insulin stimulation versus unstimulated cells; dose and duration not given. Detection: 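Antibody staining for doubly phosphorylated ERK divided by ERK-YFP signal, as plate z-scores, in insulin-treated and untreated cells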. Direction: replicate 1, z-score of dpERK with insulin: higher = more active ERK per ERK-YFP after insulin.
The deposit covers about 23,000 reagents; shown is a random part of those with a known target gene and a result. 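Extra replicates exist only for a retested subset of genes; insulin dose and duration not given; both raised and lowered dpERK matter.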 Not all columns of the deposit are shown. No sequences are given here. The record does not give: the amount of reagent, the time to read-out.

Against mod [DRSC16999], the values are replicate 1, z-score of dpERK with insulin -0.07.
For Gbp1 [DRSC06592], the entry reads replicate 1, z-score of dpERK with insulin -0.18.
Against CG7542 [DRSC10868], the entry reads replicate 1, z-score of dpERK with insulin -0.1.
CG10916 [DRSC06012] showed replicate 1, z-score of dpERK with insulin 1.28.
With knock-down of IP3K2 [DRSC19500] the results were replicate 1, z-score of dpERK with insulin 0.56.
Depletion of IP3K2 [DRSC19747] resulted in: replicate 1, z-score of dpERK with insulin 0.65.
IP3K2 [DRSC22614] gave replicate 1, z-score of dpERK with insulin 0.16.
Smvt [DRSC15426] showed replicate 1, z-score of dpERK with insulin -0.23.
With knock-down of Zmynd10 [DRSC09826] the results were replicate 1, z-score of dpERK with insulin -0.27.
With knock-down of eco [DRSC11006], the screen gave replicate 1, z-score of dpERK with insulin -0.99.
For ksh [DRSC19554], the values are replicate 1, z-score of dpERK with insulin 1.6.
CG34029 [DRSC03909] gave replicate 1, z-score of dpERK with insulin 0.58.
For CG6553 [DRSC07002], the entry reads replicate 1, z-score of dpERK with insulin 0.16.

Part of the list above in another layout.
| Target gene | amplicon | replicate 1, z-score of dpERK with insulin |
| --- | --- | --- |
| mod | DRSC16999 | -0.07 |
| Gbp1 | DRSC06592 | -0.18 |
| CG7542 | DRSC10868 | -0.1 |
| CG10916 | DRSC06012 | 1.28 |
| IP3K2 | DRSC19500 | 0.56 |

The results go on:
For lncRNA:CR31781 [DRSC02431] the deposit lists replicate 1, z-score of dpERK with insulin 1.88.
Depletion of lncRNA:CR31781 [DRSC02432] came out at: replicate 1, z-score of dpERK with insulin -0.43.
For CG1896 [DRSC15397], the entry reads replicate 1, z-score of dpERK with insulin -0.33.
Against rha [DRSC17044], the values are replicate 1, z-score of dpERK with insulin -0.36.
Against MED6 [DRSC16500], the values are replicate 1, z-score of dpERK with insulin 1.85.
Silencing of MED11 [DRSC10739] gave: replicate 1, z-score of dpERK with insulin -7.85.
With knock-down of caz [DRSC20317], the screen gave replicate 1, z-score of dpERK with insulin 0.83.
For caz [DRSC22594], the entry reads replicate 1, z-score of dpERK with insulin 0.79.
Against bbc [DRSC06958] the deposit lists replicate 1, z-score of dpERK with insulin 0.46.
Against bbc [DRSC22309] the deposit lists replicate 1, z-score of dpERK with insulin -0.26.
After knock-down of CG42262 (retired record) [DRSC17628] the results were replicate 1, z-score of dpERK with insulin -0.22.
Against CG42262 (retired record) [DRSC17974], the entry reads replicate 1, z-score of dpERK with insulin 1.04.
For Zip99C [DRSC16320] the deposit lists replicate 1, z-score of dpERK with insulin 0.21.
After knock-down of Jon66Cii [DRSC10778] the results were replicate 1, z-score of dpERK with insulin 0.29.
Against CG13640 [DRSC14639] the deposit lists replicate 1, z-score of dpERK with insulin 0.25.
lncRNA:CR32160 [DRSC22904] showed replicate 1, z-score of dpERK with insulin 0.69.
With knock-down of Wdr59 [DRSC02771] the results were replicate 1, z-score of dpERK with insulin 1.05.
Knock-down of CG43271 [DRSC01614] resulted in: replicate 1, z-score of dpERK with insulin 0.34.
Against CG43271 [DRSC21741] the deposit lists replicate 1, z-score of dpERK with insulin 0.72.
